{
  "sequences": {"note": "By UniProt entry, the sequences of proteins in these tests, tags left out.", "UniProt Q03164, whole entry, looked up": "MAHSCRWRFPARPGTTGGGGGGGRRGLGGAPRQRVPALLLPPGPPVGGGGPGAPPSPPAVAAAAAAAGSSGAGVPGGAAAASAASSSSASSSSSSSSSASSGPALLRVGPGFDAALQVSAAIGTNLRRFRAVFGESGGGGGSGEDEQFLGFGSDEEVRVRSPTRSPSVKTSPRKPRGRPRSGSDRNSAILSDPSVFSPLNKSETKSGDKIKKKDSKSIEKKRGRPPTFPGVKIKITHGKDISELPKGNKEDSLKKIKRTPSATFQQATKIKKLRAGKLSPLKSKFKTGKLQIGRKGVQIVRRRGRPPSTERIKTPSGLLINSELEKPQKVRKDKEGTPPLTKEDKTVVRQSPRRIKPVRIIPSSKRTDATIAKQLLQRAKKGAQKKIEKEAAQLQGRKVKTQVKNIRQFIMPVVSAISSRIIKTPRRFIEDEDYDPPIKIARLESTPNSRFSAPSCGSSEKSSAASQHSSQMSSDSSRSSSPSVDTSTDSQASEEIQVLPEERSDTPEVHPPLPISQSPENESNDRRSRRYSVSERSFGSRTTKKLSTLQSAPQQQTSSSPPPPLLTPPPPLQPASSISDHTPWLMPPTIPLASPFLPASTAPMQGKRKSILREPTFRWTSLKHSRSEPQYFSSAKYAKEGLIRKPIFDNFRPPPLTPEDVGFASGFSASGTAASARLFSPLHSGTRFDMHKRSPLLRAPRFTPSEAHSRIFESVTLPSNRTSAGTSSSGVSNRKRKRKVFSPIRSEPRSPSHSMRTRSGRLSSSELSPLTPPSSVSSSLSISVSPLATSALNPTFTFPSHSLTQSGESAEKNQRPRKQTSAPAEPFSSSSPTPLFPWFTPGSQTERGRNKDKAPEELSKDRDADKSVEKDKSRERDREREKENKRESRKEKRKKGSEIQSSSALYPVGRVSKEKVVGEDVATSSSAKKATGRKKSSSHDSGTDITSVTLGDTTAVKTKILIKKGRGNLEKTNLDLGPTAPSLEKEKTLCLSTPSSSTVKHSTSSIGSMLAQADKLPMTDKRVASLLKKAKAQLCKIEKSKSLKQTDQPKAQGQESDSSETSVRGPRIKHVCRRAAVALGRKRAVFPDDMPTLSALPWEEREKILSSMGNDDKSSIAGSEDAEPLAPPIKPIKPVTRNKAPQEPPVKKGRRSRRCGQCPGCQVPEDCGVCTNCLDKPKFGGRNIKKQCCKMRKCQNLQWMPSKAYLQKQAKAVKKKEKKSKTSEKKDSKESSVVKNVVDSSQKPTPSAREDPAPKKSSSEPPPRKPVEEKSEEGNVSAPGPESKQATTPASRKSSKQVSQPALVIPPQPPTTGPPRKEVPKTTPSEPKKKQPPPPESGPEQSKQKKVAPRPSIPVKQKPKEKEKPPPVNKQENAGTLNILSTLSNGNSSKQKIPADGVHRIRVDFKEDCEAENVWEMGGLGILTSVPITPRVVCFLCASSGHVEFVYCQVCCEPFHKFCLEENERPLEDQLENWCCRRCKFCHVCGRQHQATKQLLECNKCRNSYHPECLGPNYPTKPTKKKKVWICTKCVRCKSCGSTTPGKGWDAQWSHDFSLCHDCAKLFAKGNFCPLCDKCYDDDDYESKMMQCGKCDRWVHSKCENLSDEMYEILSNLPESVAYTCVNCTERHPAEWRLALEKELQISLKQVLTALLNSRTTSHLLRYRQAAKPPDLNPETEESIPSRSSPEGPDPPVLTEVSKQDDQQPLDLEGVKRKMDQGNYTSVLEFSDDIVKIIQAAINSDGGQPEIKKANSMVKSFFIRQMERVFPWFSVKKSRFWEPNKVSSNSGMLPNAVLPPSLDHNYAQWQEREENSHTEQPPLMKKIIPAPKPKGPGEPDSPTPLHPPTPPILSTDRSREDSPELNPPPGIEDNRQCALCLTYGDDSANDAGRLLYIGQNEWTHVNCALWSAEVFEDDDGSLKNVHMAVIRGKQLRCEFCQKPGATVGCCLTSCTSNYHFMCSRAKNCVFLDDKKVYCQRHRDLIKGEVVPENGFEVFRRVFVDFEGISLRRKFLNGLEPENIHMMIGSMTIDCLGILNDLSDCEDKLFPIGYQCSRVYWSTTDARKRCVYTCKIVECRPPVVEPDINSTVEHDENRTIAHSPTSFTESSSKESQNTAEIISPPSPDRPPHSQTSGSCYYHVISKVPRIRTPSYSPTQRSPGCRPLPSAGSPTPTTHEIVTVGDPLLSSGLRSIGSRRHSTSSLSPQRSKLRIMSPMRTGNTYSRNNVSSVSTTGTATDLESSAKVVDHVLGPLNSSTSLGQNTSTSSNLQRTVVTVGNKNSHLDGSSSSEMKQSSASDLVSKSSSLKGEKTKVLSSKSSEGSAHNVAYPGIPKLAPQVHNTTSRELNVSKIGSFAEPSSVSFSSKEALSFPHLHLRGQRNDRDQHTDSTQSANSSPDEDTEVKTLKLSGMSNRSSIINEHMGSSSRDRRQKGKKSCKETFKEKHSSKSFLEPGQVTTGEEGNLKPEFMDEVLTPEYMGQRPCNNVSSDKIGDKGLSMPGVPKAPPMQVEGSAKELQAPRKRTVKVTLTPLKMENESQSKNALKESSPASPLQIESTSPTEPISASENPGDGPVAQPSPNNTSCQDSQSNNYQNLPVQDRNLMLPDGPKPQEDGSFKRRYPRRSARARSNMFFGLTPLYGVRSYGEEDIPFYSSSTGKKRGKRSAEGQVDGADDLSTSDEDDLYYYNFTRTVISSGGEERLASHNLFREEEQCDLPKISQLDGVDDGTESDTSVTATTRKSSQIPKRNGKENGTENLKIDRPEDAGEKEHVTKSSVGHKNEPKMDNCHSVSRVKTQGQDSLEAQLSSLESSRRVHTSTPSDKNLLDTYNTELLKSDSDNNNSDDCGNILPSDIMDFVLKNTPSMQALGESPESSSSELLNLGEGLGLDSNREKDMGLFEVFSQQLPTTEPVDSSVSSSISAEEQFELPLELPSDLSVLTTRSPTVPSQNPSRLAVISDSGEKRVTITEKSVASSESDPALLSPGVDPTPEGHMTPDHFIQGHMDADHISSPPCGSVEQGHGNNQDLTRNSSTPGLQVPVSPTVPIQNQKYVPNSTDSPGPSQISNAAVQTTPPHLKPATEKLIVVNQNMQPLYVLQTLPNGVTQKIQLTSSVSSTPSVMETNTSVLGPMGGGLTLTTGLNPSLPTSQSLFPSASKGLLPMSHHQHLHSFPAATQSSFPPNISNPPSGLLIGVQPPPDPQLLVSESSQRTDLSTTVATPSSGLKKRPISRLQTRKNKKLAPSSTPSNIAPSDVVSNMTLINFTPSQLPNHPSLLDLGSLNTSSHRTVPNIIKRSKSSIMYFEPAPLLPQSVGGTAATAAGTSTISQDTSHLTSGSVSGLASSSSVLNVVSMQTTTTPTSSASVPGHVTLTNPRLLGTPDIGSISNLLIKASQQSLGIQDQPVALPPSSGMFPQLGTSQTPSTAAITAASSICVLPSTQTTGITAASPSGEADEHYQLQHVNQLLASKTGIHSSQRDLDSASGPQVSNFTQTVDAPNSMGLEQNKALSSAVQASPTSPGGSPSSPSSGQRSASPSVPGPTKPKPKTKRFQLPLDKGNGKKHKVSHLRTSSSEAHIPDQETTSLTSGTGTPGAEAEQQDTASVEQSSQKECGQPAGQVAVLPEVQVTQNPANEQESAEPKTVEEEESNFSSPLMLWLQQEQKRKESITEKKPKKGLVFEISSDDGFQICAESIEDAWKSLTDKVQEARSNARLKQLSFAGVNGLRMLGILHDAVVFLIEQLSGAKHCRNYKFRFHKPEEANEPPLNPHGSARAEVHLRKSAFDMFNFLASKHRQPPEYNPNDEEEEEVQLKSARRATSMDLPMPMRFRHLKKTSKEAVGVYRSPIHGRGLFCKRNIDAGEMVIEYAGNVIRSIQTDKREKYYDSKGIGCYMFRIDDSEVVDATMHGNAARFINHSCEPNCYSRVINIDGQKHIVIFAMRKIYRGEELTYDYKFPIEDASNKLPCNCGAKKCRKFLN"},
  "source": "PubChem BioAssay AID2662",
  "about": "(National Center for Advancing Translational Sciences (NCATS), 2010)",
  "note": "The campaign covered roughly 290,000 compounds. About 110 (0.038%) were called active. Inconclusive results, whose numbers are uncertain, are shown with a selection of clear calls. Calls come from the whole dose curve; as a rule, active = well fitted inhibition curve with a large enough effect in the polarisation, with a control signal flat (not every such curve was filed as active); inconclusive = small, poorly fitted or top-dose-only effect, or effect the other way, or a change in a side signal; inactive = no such curve, though single readings can be large or run the other way; the % refers to the polarisation. A potency beside an inconclusive call is a rough fit, not a confirmed value. A note “side channel” means that the fit belongs to a control or component signal, not to the main read-out. Potency is the fitted concentration of half-maximal effect.",
  "data": [
    {"target": "Histone-lysine N-methyltransferase 2A (Homo sapiens) (UniProt Q03164)", "assay": "qHTS Fluorescence Polarization Assay for Inhibitors of MLL CXXC domain - DNA interaction", "details": "MLL-CXXC / FITC-HOXA9 DNA fluorescence polarization; series mostly up to 115 µM", "summary_of_the_method": "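Steps: dispense CXXC domain solution (7 uM) → pin compounds or unlabeled HOX-A9 DNA control → 5 min ambient → add FLSN-HOX-A9 solution (50 nM) → spin → 30 min ambient → fluorescence polarization. Tris pH 7.5/NaCl/DTT/BSA buffer.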", "values": [
      {"smiles": "CCn1cc(C(=O)O)c(=O)c2cc(F)c(N/N=C/c3ccccc3[N+](=O)[O-])cc21", "Potency": "inconclusive: 1.41 µM [inhibitor, full curve, poor fit]"},
      {"smiles": "COc1ccc2c(c1)c(/C=C/c1cc[n+](C)cc1)cn2C", "Potency": "inconclusive: 31.6 µM [fluorescent, side channel, partial curve]"},
      {"smiles": "Cc1ccc2cccc(OCc3cccc([N+](=O)[O-])c3)c2n1", "Potency": "inconclusive: 70.8 µM [fluorescent, side channel, single point]"},
      {"smiles": "Cc1ccc(/C=C/c2nnc(-c3cccc(C)c3)o2)cc1", "Potency": "inactive"},
      {"smiles": "O=S(=O)(Nc1cc(F)ccc1F)c1cccc2nonc12", "Potency": "inconclusive: 15.8 µM [fluorescent, side channel, single point]"},
      {"smiles": "O=c1[nH]c(CSc2nc3ccccc3[nH]2)nc2c1cnn2-c1ccccc1", "Potency": "inconclusive: 70.8 µM [fluorescent, side channel, single point]"},
      {"smiles": "c1ccc(-n2ncc3c(N4CCN(CCOc5cccc6ccccc56)CC4)ncnc32)cc1", "Potency": "inconclusive: 1 µM [inhibitor, full curve, poor fit]"},
      {"smiles": "Cc1ccn2c(Nc3ccc4c(c3)OCO4)c(-c3ccccn3)nc2c1", "Potency": "inconclusive: 28.2 µM [quencher, side channel, partial curve]"},
      {"smiles": "Cc1csc(NC(=O)c2ccc(=O)[nH]c2)n1", "Potency": "inconclusive: 31.6 µM [fluorescent, side channel, partial curve]"},
      {"smiles": "O=C1NN(c2ccc(Br)cc2)C(=O)/C1=C\\c1ccc(O)cc1O", "Potency": "inconclusive: 63.1 µM [inhibitor, single point]"},
      {"smiles": "COc1ccc(NC(=O)C/C(C)=N/NC(=O)CCc2ccccc2)c(OC)c1", "Potency": "inconclusive: 14.1 µM [fluorescent, side channel, single point]"},
      {"smiles": "CCCCN(CC)CCNC(=O)c1ccc2c(Cl)c3c(nc2c1)CCC3", "Potency": "inconclusive: 35.5 µM [fluorescent, side channel, partial curve, poor fit]"},
      {"smiles": "O=C(OCc1ccc([N+](=O)[O-])cc1Cl)c1cnccn1", "Potency": "inconclusive: 63.1 µM [quencher, side channel, single point]"},
      {"smiles": "O=C(O)c1ccc(NC2=C/C(=N/S(=O)(=O)c3ccccc3)c3ccccc3C2=O)cc1", "Potency": "inconclusive: 22.4 µM [inhibitor, partial curve]"},
      {"smiles": "Cc1ccc(NC(=O)CN2C(=O)S/C(=C\\c3ccc(-c4cccc(C(=O)O)c4C)o3)C2=O)cc1", "Potency": "inconclusive: 50.1 µM [fluorescent, side channel, single point]"},
      {"smiles": "Nc1cc(=O)[nH]c(=O)n1CCc1ccccc1", "Potency": "inconclusive: 70.8 µM [inhibitor, single point]"},
      {"smiles": "Nc1[nH]nc2nc3ccccc3cc12", "Potency": "inconclusive: 70.8 µM [fluorescent, side channel, single point]"},
      {"smiles": "COc1ccc(-c2nn(-c3ccccc3)cc2/C=N/N2C(=O)CSC2=S)cc1", "Potency": "inconclusive: 1.41 µM [quencher, side channel, full curve, poor fit]"},
      {"smiles": "CCCCCCc1cc2cc(C(=O)NC)c(=N)oc2cc1O", "Potency": "inconclusive: 50.1 µM [fluorescent, side channel, partial curve]"},
      {"smiles": "CC1C2C(C)N(C)C(=O)N(C)C2N(C)C(=O)N1C", "note": "(stereo not given)", "Potency": "inconclusive: 70.8 µM [fluorescent, side channel, single point]"},
      {"smiles": "CC(=O)SC1CC(=O)N(c2ccc(C(C)(C)C)cc2)C1=O", "note": "(stereo not given)", "Potency": "inconclusive: 1 µM [inhibitor, full curve, poor fit]"},
      {"smiles": "Cc1nn(-c2ccccc2)c(C)c1/C=C/C(=O)OCC(=O)N(C)C1CCS(=O)(=O)C1", "note": "(stereo not given)", "Potency": "inconclusive: 2.51 µM [inhibitor, full curve, poor fit]"},
      {"smiles": "OC1CCCN(Cc2c3ccccc3cc3ccccc23)C1", "note": "(stereo not given)", "Potency": "inactive"},
      {"smiles": "O=C(NCC(c1ccco1)N1CCCC1)c1cccc(S(=O)(=O)Nc2ccc(Br)cc2)c1", "note": "(stereo not given)", "Potency": "inconclusive: 35.5 µM [fluorescent, side channel, partial curve]"},
      {"smiles": "CCCNC(=O)C(=O)N/N=C/c1ccc(OCc2ccccc2)cc1", "Potency": "inconclusive: 1 µM [quencher, side channel, full curve]"},
      {"smiles": "COC(=O)c1c(NC(=O)COC(=O)[C@@H](NS(=O)(=O)c2ccc(C)cc2)C(C)C)sc2c1CCC2", "Potency": "inconclusive: 14.1 µM [fluorescent, side channel, full curve]"},
      {"smiles": "Oc1cccc(NC(=S)N=Nc2c(O)[nH]c3ccc(Br)cc23)c1", "Potency": "inconclusive: 1.12 µM [quencher, side channel, full curve, poor fit]"},
      {"smiles": "COc1ccc(N=Cc2c(O)c3ccccc3n2C(C)=O)cc1", "Potency": "inconclusive: 28.2 µM [fluorescent, side channel, partial curve]"},
      {"smiles": "Nc1c(C(=O)NCc2ccco2)nnn1CC(=O)Nc1ccccc1", "Potency": "inconclusive: 1.26 µM [quencher, side channel, full curve, poor fit]"},
      {"smiles": "CCOC(=O)c1ccc(NC(=S)NNC(=O)COC)cc1", "Potency": "inconclusive: 1.12 µM [fluorescent, side channel, full curve, poor fit]"},
      {"smiles": "CC(=O)COc1ccc2c(C)c(-c3ccccc3)c(=O)oc2c1", "Potency": "inconclusive: 10 µM [quencher, side channel, single point]"},
      {"smiles": "COc1ccc(OCC(=O)N/N=C/c2ccncc2)cc1", "Potency": "inconclusive: 70.8 µM [quencher, side channel, single point]"},
      {"smiles": "CC1CCCN(Cc2c(O)ccc3c2O/C(=C\\c2ccco2)C3=O)C1", "note": "(stereo not given)", "Potency": "inconclusive: 14.1 µM [fluorescent, single point]"},
      {"smiles": "CCC(=O)N(CCC(Cc1ccccc1)c1ccc2c(c1)OCO2)Cc1ccccc1F", "note": "(stereo not given)", "Potency": "inactive"},
      {"smiles": "O=C1/C(=C/c2c[nH]c3ccccc23)CCC/C1=C\\c1c[nH]c2ccccc12", "Potency": "inconclusive: 35.5 µM [fluorescent, side channel, partial curve]"}
    ]}
  ]
}
